# Some of these results come from one statement about several compounds together. Some compounds share one range, which may span the group rather than tell each member.
# Biological target: T1, Aurora A kinase (Homo sapiens, UniProt O14965)
# T1 sequence (O14965 1-403 T288D): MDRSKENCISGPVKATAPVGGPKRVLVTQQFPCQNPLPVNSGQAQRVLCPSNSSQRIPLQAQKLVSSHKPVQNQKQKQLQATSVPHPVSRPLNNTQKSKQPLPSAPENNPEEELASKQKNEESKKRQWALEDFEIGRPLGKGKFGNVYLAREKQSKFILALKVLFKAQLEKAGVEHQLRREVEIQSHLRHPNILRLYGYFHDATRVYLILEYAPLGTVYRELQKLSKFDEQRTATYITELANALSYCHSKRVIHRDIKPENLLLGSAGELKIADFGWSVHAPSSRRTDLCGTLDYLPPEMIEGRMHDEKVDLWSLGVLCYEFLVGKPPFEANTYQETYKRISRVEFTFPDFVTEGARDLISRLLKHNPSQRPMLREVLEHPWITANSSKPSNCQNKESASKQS
# Assay: IC50 determination for inhibitors of Aurora A (ELISA-type kinase assay, GST-Histone H3 substrate)
# Type: biochemical
# Conditions: mutant Aurora A kinase, 30 μM ATP, 40 minutes
# Protocol: Aurora A is a serine threonine kinase involved in spindle assembly and chromosome segregation.
# The assay is a typically ELISA-type assay where substrate (GST-Histone H3) is coupled to the assay-plate and is phosphorylated by the kinase. Phosphorylation is detected by a mouse anti-Phosphopeptid mAb and an HRP-labeled anti-mouse pAb. The assay is validated for IC50-determination.
# Kinase activities were measured by Enzyme-Linked Immunosorbent Assay (ELISA): Maxisorp 384-well plates (Nunc) were coated with recombinant fusion protein comprising residues 1-15 of HistoneH3 fused to the N-terminus of Glutathione-S-Transferase. Plates were then blocked with a solution of 1 mg/mL I-block (Tropix cat# T2015—highly purified form of casein) in phosphate-buffered saline. Kinase reactions were carried out in the wells of the ELISA plate by combining an appropriate amount of mutant Aurora A kinase with test compound and 30 μM ATP. The reaction buffer was 10× Kinase Buffer (Cell Signaling cat #9802) supplemented with 1 μg/mL I-block. Reactions were stopped after 40 minutes by addition of 25 mM EDTA. After washing, substrate phosphorylation was detected by addition of anti-phospho-Histone H3 (Ser 10) 6G3 mAb (Cell Signaling cat #9706) and sheep anti-mouse pAb-HRP (Amersham cat# NA931V), followed by colorimetric development with TMB (3,3′,5,5′-tetramethylbenzidine from Kirkegaard & Perry Laboratories). After readout of the absorbance, IC50 values were calculated using a non-linear curve fit (XLfit software (ID Business Solution Ltd., Guilford, Surrey, UK)).
row,SMILES,IC50 Aurora A kinase inhibition [nM]
1,"CCN1C(=O)C(C)(C)c2cc3nc(-c4n[nH]c5cc(-c6nc[nH]n6)ccc45)[nH]c3cc21 [Example 2, 5-Ethyl-7,7-dimethyl-2-[6-(1H-[1,2,4]triazol-3-yl)-1H-indazol-3-yl]-5,7-dihydro-3H-imidazo[4,5-f]indol-6-one]",0.1 to 100
2,"CCN1C(=O)C(C)(C)c2cc3nc(-c4n[nH]c5ccc(-c6nnn[nH]6)cc45)[nH]c3cc21 [Example 3, 5-Ethyl-7,7-dimethyl-2-[5-(1H-tetrazol-5-yl)-1H-indazol-3-yl]-5,7-dihydro-3H-imidazo[4,5-f]indol-6-one]",0.1 to 100
3,"CCN1C(=O)C(C)(C)c2cc3nc(-c4n[nH]c5cc(/C=C/c6ccccc6)ccc45)[nH]c3cc21 [Example 5, 5-Ethyl-7,7-dimethyl-2-[6-((E)-styryl)-1H-indazol-3-yl]-5,7-dihydro-3H-imidazo[4,5-f]indol-6-one]",0.1 to 100
4,"CCN1C(=O)C(C)(C)c2cc3nc(-c4n[nH]c5cc(-c6cnn(C)c6)ccc45)[nH]c3cc21 [Example 7, 5-Ethyl-7,7-dimethyl-2-[6-(1-methyl-1H-pyrazol-4-yl)-1H-indazol-3-yl]-5,7-dihydro-3H-imidazo[4,5-f]indol-6-one]",0.1 to 100
5,"CCN1C(=O)C(C)(C)c2cc3nc(-c4n[nH]c5cc(-c6cccnc6)ccc45)[nH]c3cc21 [Example 8, 5-Ethyl-7,7-dimethyl-2-(6-pyridin-3-yl-1H-indazol-3-yl)-5,7-dihydro-3H-imidazo[4,5-f]indol-6-one]",0.1 to 100
6,"CCN1C(=O)C(C)(C)c2cc3nc(-c4n[nH]c5cc(/C=C/c6ccc(OC)cc6)ccc45)[nH]c3cc21 [Example 10, 5-Ethyl-2-{6-[(E)-2-(4-methoxy-phenyl)-vinyl]-1H-indazol-3-yl}-7,7-dimethyl-5,7-dihydro-3H-imidazo[4,5-f]indol-6-one]",0.1 to 100
7,"CCN1C(=O)C(C)(C)c2cc3nc(-c4n[nH]c5cc(-c6ccc(C(C)=O)cc6)ccc45)[nH]c3cc21 [Example 13, 2-[6-(4-Acetyl-phenyl)-1H-indazol-3-yl]-5-ethyl-7,7-dimethyl-5,7-dihydro-3H-imidazo[4,5-f]indol-6-one]",0.1 to 100
8,"CCN1C(=O)C(C)(C)c2cc3nc(-c4n[nH]c5cc(-c6ccc(OC)nc6)ccc45)[nH]c3cc21 [Example 14, 5-Ethyl-2-[6-(6-methoxy-pyridin-3-yl)-1H-indazol-3-yl]-7,7-dimethyl-5,7-dihydro-3H-imidazo[4,5-f]indol-6-one]",0.1 to 100
9,"CCN1C(=O)C(C)(C)c2cc3nc(-c4n[nH]c5cc(-c6cccs6)ccc45)[nH]c3cc21 [Example 16, 5-Ethyl-7,7-dimethyl-2-(6-thiophen-2-yl-1H-indazol-3-yl)-5,7-dihydro-3H-imidazo[4,5-f]indol-6-one]",0.1 to 100
10,"CCN1C(=O)C(C)(C)c2cc3nc(-c4n[nH]c5cc(-c6ccc(C(=O)O)cc6)ccc45)[nH]c3cc21 [Example 17, 4-[3-(5-Ethyl-7,7-dimethyl-6-oxo-3,5,6,7-tetrahydro-imidazo[4,5-f]indol-2-yl)-1H-indazol-6-yl]-benzoic acid]",0.1 to 100
11,"CCN1C(=O)C(C)(C)c2cc3nc(-c4n[nH]c5cc(-c6ccc7c(c6)OCO7)ccc45)[nH]c3cc21 [Example 20, 2-(6-Benzo[1,3]dioxol-5-yl-1H-indazol-3-yl)-5-ethyl-7,7-dimethyl-5,7-dihydro-3H-imidazo[4,5-f]indol-6-one]",0.1 to 100
12,"CCN1C(=O)C(C)(C)c2cc3nc(-c4n[nH]c5cc(/C=C/c6cccc(F)c6)ccc45)[nH]c3cc21 [Example 23, 5-Ethyl-2-{6-[(E)-2-(3-fluoro-phenyl)-vinyl]-1H-indazol-3-yl}-7,7-dimethyl-5,7-dihydro-3H-imidazo[4,5-f]indol-6-one]",0.1 to 100
13,"CC(=O)O.CCN1C(=O)C(C)(C)c2cc3nc(-c4n[nH]c5ccc(-c6cnn(C)c6)cc45)[nH]c3cc21 [Example 26, 5-Ethyl-7,7-dimethyl-2-[5-(1-methyl-1H-pyrazol-4-yl)-1H-indazol-3-yl]-5,7-dihydro-3H-imidazo[4,5-f]indol-6-one; compound with acetic acid]",0.1 to 100
14,"CCN1C(=O)C(C)(C)c2cc3nc(-c4n[nH]c5ccc(-c6cccnc6)cc45)[nH]c3cc21 [Example 27, 5-Ethyl-7,7-dimethyl-2-(5-pyridin-3-yl-1H-indazol-3-yl)-5,7-dihydro-3H-imidazo[4,5-f]indol-6-one]",0.1 to 100
15,"CCN1C(=O)C(C)(C)c2cc3nc(-c4n[nH]c5cc(-c6ccccc6)ccc45)[nH]c3cc21 [Example 31, 5-Ethyl-7,7-dimethyl-2-(6-phenyl-1H-indazol-3-yl)-5,7-dihydro-3H-imidazo[4,5-f]indol-6-one]",0.1 to 100
16,"CCN1C(=O)C(C)(C)c2cc3nc(-c4n[nH]c5cc(-c6cncnc6)ccc45)[nH]c3cc21 [Example 32, 5-Ethyl-7,7-dimethyl-2-(6-pyrimidin-5-yl-1H-indazol-3-yl)-5,7-dihydro-3H-imidazo[4,5-f]indol-6-one]",0.1 to 100
17,"CCN1C(=O)C(C)(C)c2cc3nc(-c4n[nH]c5cc(-c6cc(OC)cc(OC)c6)ccc45)[nH]c3cc21 [Example 34, 2-[6-(3,5-Dimethoxy-phenyl)-1H-indazol-3-yl]-5-ethyl-7,7-dimethyl-5,7-dihydro-3H-imidazo[4,5-f]indol-6-one]",0.1 to 100
18,"CCN1C(=O)C(C)(C)c2cc3nc(-c4n[nH]c5cc(-c6cn[nH]c6)ccc45)[nH]c3cc21 [Example 37, 5-Ethyl-7,7-dimethyl-2-[6-(1H-pyrazol-4-yl)-1H-indazol-3-yl]-5,7-dihydro-3H-imidazo[4,5-f]indol-6-one]",0.1 to 100

# — patent publication US20090291968A1, “SUBSTITUTED INDAZOLE DERIVATIVES, THEIR MANUFACTURE AND USE AS PHARMACEUTICAL AGENTS” (priority 2006, published 2009)
